Data from publication PMC5067540.
No constants are given. Whether binding was seen depends on the method and setting. Binding seen in cells or lysates may run through a third protein. Some binding calls cover weakened binding; strength is not graded here.

Amino acid sequences for entries named in this document (tags omitted). Residues count along the entry.
UniProt P70206, residues 28-1894: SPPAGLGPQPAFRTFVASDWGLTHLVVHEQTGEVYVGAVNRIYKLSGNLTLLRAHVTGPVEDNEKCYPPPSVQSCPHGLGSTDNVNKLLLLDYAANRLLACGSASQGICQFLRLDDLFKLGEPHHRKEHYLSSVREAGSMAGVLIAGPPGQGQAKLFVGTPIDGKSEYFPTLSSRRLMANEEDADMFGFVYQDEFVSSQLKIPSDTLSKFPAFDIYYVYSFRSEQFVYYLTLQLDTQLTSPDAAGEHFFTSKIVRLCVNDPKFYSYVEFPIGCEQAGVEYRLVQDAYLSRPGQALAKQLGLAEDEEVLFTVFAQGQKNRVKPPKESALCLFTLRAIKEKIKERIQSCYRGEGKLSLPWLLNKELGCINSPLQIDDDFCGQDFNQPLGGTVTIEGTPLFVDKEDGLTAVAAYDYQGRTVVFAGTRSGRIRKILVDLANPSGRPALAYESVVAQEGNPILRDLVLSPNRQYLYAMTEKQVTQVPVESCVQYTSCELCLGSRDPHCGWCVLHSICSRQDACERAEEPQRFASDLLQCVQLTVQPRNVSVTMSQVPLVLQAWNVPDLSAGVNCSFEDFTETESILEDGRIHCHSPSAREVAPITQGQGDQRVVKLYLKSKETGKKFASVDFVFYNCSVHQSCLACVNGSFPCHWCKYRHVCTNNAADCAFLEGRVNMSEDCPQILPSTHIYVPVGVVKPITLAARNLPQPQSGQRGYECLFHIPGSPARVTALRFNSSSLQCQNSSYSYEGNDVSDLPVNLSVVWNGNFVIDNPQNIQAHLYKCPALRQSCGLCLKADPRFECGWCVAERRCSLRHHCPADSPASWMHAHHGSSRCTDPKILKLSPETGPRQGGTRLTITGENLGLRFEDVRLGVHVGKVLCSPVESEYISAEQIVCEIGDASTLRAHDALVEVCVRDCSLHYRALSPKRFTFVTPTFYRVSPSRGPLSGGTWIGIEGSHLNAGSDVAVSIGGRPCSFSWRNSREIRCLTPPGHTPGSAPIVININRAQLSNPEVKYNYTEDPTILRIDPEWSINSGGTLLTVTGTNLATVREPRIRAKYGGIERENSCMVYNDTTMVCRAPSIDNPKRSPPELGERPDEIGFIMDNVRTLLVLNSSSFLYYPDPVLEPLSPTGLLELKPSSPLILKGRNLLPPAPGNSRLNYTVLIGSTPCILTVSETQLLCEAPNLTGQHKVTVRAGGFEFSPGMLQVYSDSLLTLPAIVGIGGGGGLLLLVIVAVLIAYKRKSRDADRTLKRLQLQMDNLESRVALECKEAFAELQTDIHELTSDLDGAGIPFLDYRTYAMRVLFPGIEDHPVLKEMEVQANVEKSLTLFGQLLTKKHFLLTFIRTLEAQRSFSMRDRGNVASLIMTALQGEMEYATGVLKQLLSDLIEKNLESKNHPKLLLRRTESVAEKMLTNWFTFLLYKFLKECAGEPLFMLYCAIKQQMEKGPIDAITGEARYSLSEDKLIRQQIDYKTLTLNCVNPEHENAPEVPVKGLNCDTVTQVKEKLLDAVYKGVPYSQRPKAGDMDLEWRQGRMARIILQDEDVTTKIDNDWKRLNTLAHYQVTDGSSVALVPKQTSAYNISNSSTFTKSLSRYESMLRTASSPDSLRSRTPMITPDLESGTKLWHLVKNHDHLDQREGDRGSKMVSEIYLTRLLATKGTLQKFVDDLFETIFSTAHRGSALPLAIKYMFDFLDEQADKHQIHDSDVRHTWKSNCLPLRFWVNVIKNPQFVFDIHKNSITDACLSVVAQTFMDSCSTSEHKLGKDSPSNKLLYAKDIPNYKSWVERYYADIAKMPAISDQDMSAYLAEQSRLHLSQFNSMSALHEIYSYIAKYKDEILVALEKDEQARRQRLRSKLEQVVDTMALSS
UniProt O54885, residues 22-114: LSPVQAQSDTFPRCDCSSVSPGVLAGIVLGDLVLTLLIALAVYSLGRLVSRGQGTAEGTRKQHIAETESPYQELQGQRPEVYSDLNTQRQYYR

Key:
[1] = biological target: plexinA1 (mouse (endogenous in BMSC and RAW264.7)) (UniProt P70206); assay: co-IP; mouse BMSC treated with or without 2 μg/ml wedelolactone (and Sema3A antibody) for 9 days; RIPA lysate; PlexinA1 antibody overnight at 4°C, protein A or G agarose; Western blot
[2] = biological target: plexinA1 (mouse (endogenous in BMSC and RAW264.7)) (UniProt P70206); assay: co-IP; RAW264.7 cells treated with RANKL for 4 days with OS, wedelolactone, BMSC conditioned media (CM1) or wedelolactone-treated 9-day conditioned media (CM2); RIPA lysate; PlexinA1 antibody overnight at 4°C, protein A or G agarose; Western blot

Molecule | binding [1] | binding [2]
neuropilin (NRP)1 (from UniProt P97333 22-923) (receptor) | binds | binds
DNAX-activating protein 12 (DAP12) (from UniProt O54885 22-114) | – | binds
semaphorin 3A (Sema3A) (ligand, UniProt O08665 21-772) NYANGKNNVPRLKLSYKEMLESNNVITFNGLANSSSYHTFLLDEERSRLYVGAKDHIFSFNLVNIKDFQKIVWPVSYTRRDECKWAGKDILKECANFIKVLEAYNQTHLYACGTGAFHPICTYIEVGHHPEDNIFKLQDSHFENGRGKSPYDPKLLTASLLIDGELYSGTAADFMGRDFAIFRTLGHHHPIRTEQHDSRWLNDPRFISAHLIPESDNPEDDKVYFFFRENAIDGEHSGKATHARIGQICKNDFGGHRSLVNKWTTFLKARLICSVPGPNGIDTHFDELQDVFLMNSKDPKNPIVYGVFTTSSNIFKGSAVCMYSMSDVRRVFLGPYAHRDGPNYQWVPYQGRVPYPRPGTCPSKTFGGFDSTKDLPDDVITFARSHPAMYNPVFPINNRPIMIKTDVNYQFTQIVVDRVDAEDGQYDVMFIGTDVGTVLKVVSVPKETWHDLEEILLEEMTVFREPTTISAMELSTKQQQLYIGSTAGVAQLPLHRCDIYGKACAECCLARDPYCAWDGSSCSRYFPTAKRRTRRQDIRNGDPLTHCSDLQHHDNHHGPSLEERIIYGVENSSTFLECSPKSQRALVYWQFQRRNEDRKEEIRMGDHIIRTEQGLLLRSLQKKDSGNYLCHAVEHGFMQTLLKVTLEVIDTEHLEELLHKDDDGDGSKIKEMSSSMTPSQKVWYRDFMQLINHPNLNTMDEFCEQVWKRDRKQRRQRPGHSQGSSNKWKHMQESKKGRNRRTHEFERAPRSV | binds | –
